This is one part of the list.
Assays:
Test in all cases: log2 fold change, soluble protein after heating vs DMSO (PISA); higher = thermal stabilisation; K562 lysate, 10 uM; active = over 0.2 and 3.5 SD of the protein, either way, in both replicates (recomputed)
[1] = compound: C1=CC=C(C=C1)[C@H](COC2=CC3=C(C=C2)NC(=O)N3)NC(=O)C4=CC=CN(C4=O)CC5=CC(=C(C=C5)F)F
In short: (§1)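 Following dounce homogenisation of K562 pellets in PBS pH 7.4 with 1 mM MgCl2, crude extract at 1 mg/mL protein was incubated for 30 min with 10 μM compound. Aliquots were then heated for 3 min over 48°C-58°C and pooled, NP-40 was added to 0.5% at 4°C, and soluble protein was recovered as the supernatant at 21,000xg for 90 min. Channel-sum-equalised TMTpro 16plex LC-MS/MS quantified this protein. Each value, from duplicates, is a log-two fold change in thermal stability relative to solvent controls.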

Amino acid sequences for entries named in this document (tags omitted). A change or cut given only in a name is not applied to a line headed by its entry.
UniProt O60784, whole entry, looked up: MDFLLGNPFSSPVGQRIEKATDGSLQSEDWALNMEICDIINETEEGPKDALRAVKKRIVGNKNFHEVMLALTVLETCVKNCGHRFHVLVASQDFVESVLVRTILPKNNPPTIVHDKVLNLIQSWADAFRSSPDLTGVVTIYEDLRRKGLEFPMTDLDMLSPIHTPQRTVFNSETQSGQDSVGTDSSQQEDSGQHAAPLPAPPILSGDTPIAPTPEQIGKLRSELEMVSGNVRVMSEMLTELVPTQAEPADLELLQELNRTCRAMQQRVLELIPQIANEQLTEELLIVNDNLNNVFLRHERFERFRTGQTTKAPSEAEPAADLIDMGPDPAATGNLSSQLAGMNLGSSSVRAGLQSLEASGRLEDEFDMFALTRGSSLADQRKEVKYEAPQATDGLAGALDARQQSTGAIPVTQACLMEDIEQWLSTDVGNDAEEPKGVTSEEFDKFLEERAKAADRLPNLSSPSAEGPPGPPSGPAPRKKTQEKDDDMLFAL
UniProt Q6NUQ4: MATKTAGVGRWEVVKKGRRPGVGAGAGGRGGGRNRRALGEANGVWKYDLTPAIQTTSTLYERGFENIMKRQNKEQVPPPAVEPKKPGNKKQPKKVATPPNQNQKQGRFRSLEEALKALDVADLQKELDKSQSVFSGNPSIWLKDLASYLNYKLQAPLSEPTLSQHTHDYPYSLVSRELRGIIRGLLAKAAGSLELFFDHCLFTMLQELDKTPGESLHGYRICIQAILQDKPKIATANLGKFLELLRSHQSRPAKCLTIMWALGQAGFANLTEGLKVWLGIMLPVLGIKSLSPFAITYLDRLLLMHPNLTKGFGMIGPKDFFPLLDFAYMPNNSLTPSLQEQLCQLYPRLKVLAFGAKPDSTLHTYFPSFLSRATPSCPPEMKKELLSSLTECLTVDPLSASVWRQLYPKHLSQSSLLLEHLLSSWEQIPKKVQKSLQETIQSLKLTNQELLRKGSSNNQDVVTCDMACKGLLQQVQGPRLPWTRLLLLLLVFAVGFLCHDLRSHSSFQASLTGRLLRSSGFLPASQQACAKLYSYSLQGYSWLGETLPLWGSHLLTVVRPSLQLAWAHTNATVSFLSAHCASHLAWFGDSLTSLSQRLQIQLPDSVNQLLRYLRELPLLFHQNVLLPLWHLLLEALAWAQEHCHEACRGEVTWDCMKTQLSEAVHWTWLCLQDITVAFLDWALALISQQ
UniProt Q9H0R3: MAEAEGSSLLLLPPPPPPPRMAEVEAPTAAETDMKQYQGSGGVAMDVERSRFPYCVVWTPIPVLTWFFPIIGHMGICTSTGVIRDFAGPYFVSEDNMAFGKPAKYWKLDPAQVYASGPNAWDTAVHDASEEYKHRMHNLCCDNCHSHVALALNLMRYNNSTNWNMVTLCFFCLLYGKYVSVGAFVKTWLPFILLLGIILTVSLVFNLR
UniProt Q9P0U1: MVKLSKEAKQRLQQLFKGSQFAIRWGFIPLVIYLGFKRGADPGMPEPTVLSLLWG
UniProt Q6ZT21: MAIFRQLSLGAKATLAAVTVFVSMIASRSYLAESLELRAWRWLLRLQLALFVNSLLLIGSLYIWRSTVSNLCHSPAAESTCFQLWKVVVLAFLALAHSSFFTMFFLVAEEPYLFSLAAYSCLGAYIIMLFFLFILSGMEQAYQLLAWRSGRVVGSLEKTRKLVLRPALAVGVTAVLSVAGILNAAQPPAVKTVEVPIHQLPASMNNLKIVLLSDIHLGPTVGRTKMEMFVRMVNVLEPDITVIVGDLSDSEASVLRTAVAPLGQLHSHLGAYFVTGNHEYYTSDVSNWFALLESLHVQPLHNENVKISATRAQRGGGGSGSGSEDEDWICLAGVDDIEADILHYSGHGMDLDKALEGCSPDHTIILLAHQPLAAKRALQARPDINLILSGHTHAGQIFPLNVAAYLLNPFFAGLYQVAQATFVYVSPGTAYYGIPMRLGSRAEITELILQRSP
UniProt P57088: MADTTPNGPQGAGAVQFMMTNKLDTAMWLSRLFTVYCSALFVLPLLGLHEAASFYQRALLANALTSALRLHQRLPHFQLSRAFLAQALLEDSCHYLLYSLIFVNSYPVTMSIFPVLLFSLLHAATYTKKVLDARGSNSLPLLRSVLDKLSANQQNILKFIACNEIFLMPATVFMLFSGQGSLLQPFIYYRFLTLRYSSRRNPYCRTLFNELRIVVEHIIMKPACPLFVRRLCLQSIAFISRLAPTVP
UniProt Q86XT9, whole entry, looked up: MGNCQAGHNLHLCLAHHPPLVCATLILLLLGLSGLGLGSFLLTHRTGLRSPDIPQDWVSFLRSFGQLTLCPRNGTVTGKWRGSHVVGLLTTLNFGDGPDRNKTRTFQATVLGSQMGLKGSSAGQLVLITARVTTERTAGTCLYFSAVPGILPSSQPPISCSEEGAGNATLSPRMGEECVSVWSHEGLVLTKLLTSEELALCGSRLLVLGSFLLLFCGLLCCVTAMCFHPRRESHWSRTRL
UniProt Q9UKE5: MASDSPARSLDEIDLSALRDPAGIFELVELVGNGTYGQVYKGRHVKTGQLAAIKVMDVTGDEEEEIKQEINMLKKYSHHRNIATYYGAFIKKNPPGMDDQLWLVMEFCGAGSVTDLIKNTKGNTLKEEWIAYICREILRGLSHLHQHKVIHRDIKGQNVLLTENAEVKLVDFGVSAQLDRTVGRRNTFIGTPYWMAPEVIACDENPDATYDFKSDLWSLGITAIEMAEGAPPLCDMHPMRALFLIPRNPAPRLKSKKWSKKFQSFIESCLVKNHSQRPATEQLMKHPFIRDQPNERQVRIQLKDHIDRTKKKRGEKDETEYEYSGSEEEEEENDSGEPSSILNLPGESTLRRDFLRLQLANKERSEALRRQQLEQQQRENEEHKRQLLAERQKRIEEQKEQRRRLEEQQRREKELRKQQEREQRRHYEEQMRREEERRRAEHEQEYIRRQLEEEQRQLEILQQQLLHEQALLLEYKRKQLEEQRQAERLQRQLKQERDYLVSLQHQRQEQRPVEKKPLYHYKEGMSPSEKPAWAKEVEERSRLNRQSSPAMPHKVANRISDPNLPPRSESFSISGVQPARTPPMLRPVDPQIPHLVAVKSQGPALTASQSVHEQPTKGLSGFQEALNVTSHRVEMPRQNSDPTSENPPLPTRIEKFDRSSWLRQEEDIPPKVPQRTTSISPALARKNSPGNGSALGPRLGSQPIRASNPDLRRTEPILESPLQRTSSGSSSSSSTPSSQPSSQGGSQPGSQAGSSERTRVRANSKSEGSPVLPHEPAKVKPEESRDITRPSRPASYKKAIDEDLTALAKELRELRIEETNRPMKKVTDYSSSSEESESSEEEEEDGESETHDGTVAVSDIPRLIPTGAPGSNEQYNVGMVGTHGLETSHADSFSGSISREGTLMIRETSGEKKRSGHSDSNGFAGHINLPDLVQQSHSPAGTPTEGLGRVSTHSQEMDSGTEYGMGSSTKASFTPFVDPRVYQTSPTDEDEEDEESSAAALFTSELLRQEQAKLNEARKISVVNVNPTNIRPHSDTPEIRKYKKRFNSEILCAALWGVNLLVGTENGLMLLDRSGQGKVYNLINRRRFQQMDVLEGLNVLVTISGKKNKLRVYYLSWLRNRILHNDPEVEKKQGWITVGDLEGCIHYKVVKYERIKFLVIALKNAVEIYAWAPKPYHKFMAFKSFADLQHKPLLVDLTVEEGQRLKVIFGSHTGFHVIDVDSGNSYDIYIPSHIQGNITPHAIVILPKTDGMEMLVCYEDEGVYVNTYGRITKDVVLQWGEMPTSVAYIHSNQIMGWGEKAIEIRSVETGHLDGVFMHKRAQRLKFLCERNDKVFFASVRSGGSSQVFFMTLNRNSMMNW
UniProt Q13472: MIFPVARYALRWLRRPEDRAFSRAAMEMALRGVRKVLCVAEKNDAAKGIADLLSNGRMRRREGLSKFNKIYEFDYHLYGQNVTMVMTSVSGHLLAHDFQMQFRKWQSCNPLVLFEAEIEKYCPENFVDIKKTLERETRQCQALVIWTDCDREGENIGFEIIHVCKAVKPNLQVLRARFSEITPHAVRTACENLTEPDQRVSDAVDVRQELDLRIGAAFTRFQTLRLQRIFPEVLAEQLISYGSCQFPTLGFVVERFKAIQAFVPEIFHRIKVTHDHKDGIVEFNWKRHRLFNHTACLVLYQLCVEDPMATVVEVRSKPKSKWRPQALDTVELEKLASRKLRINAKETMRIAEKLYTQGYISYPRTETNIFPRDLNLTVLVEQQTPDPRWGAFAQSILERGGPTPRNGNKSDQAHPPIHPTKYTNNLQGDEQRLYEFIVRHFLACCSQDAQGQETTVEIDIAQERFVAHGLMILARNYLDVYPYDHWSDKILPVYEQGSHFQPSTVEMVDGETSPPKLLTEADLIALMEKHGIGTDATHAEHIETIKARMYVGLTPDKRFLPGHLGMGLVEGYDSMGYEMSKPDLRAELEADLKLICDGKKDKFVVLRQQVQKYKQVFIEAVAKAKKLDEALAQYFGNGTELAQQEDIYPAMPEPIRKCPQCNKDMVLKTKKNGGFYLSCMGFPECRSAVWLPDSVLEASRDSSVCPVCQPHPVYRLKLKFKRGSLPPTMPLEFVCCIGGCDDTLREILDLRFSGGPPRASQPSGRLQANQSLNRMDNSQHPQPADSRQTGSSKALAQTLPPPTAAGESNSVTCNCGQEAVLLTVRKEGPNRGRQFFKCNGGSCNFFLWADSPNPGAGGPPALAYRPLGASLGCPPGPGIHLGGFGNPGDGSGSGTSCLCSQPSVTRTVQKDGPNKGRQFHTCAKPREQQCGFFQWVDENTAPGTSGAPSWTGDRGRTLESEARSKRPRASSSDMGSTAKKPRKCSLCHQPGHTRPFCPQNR

[2] = compound: CC1=C(SC2=C1C(=N[C@H](C3=NN=C(N32)C)CC(=O)N)C4=CC=C(C=C4)Cl)C
In short: as §1

[3] = compound: CC1=C2C(=CC=C1)N=C(N(C2=O)C3=CC=CC=C3C)CN4C=NC5=C(N=CN=C54)N
In short: as §1

[4] = compound: Cc1sc2c(c1C)C(c1ccc(Cl)cc1)=N[C@@H](CC(=O)OC(C)(C)C)c1nnc(C)n1-2
In short: as §1

[5] = compound: c1ccc([C@@H]2C[C@H]2NC2CCNCC2)cc1
In short: as §1

Measured: log2 fold change

TOM1 isoform 2 (UniProt O60784)
inactive: [1] 0.041 | [2] 0.047 | [3] -0.005 | [4] 0.012 | [5] 0.07

TMEM214 (UniProt Q6NUQ4)
inactive: [1] -0.087 | [2] -0.002 | [3] 0 | [4] 0.052 | [5] 0.037

TMEM222 (UniProt Q9H0R3)
inactive: [1] 0.197 | [2] 0.13 | [4] -0.204

TOMM7 (UniProt Q9P0U1)
inactive: [1] 0.038 | [2] -0.025 | [3] -0.001 | [4] 0.017 | [5] -0.036

TMPPE (UniProt Q6ZT21)
inactive: [1] -0.078 | [2] 0 | [3] 0.038 | [5] -0.008

TMEM33 (UniProt P57088)
inactive: [1] -0.002 | [2] 0.023 | [3] -0.015 | [4] -0.02 | [5] 0.034

TMEM219 (UniProt Q86XT9)
inactive: [1] -0.037 | [2] 0.001 | [3] -0.003 | [4] -0.016 | [5] 0.042

TNIK isoform 4 (UniProt Q9UKE5)
inactive: [1] 0.015 | [2] -0.002 | [3] -0.017 | [4] -0.032 | [5] -0.076

TOP3A (UniProt Q13472)
inactive: [1] 0.08 | [2] -0.012 | [3] 0.009 | [4] 0.028 | [5] 0.055

Reference: the supplement of paper PMC10849652
